# Where a name gives a salt, the structure may show the parent alone. ± gives the standard deviation of the averaged measurements. Some of the results follow. Part of the spread comes from offsets between plates or batches.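 The cells are a mouse kidney inner medullary collecting duct line, silenced either for the ciliary gene Rpgrip1l or with a non-targeting control siRNA.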
# Legend:
# mIMCD3 [1] = test: robust z score of cell number vs plate controls; higher = more cells (less cytotoxic); details: 10 µM, 48 h
# mIMCD3 [2] = test: robust z score of cilia incidence (% cells with single cilium) vs plate controls; higher = more ciliated cells; details: 10 µM; 48 h; siRNA: siScr
# mIMCD3 [3] = test: robust z score of cilia incidence (% cells with single cilium) vs plate controls; higher = more ciliated cells (rescue of cilia loss); details: 10 µM; 48 h; siRNA: siRpgrip1l
Compound,robust z score of cell number (mIMCD3 [1]; siRNA: siRpgrip1l),robust z score of cell number (mIMCD3 [1]; siRNA: siScr),robust z score of cilia incidence (mIMCD3 [2]),robust z score of cilia incidence (mIMCD3 [3])
CCN(CC)CCO[C@H]1CC[C@@]2(C)C(=CC[C@@H]3[C@@H]2CC[C@]2(C)C(=O)CC[C@@H]32)C1,-194 ± 220,-45 ± 11,-45.6 ± 16,-508 ± 320
Oc1ccc2c3c1O[C@H]1c4oc5ccccc5c4C[C@@]4(O)[C@@H](C2)N(CC2CC2)CC[C@]314 [Naltriben mesylate],-4.77 ± 2.8,-0.848 ± 1.7,-2.74 ± 4.4,-10.8 ± 7.6
S=C(NC1CCCCC1)N1CCC(c2cnc[nH]2)CC1 [Thioperamide],-7.54 ± 3.8,-15.9 ± 19,-1.17 ± 0.5,-10.9 ± 4.2
"CC(=O)N1CC[N+](C)(C)CC1 [4-Acetyl-1,1-dimethylpiperazinium iodide]",-8.12 ± 16,2.35 ± 1.8,1.63 ± 1.7,-10.6 ± 9.4
C=C(C)[C@H]1CN[C@H](C(=O)O)[C@H]1CC(=O)O [Kainic acid],1.36 ± 4.9,1.28 ± 3.1,-3.27 ± 2.2,-10.5 ± 8.7
COc1ccc2c(c1)c(CCN1CCOCC1)c(C)n2C(=O)c1cccc(Cl)c1Cl,-29.9 ± 15,-27.5 ± 4.8,-36.8 ± 31,-26.6 ± 14
Cc1[nH]c2ccc(Cl)cc2c1C1=CCNCC1,-9.17 ± 4.5,-1.97 ± 0.67,-0.025 ± 2.1,-17.2 ± 14
Oc1cc2c(cc1O)[C@H]1c3ccccc3CN[C@@H]1CC2 (racemic) [Dihydrexidine hydrochloride],-17.2 ± 3.2,-13.2 ± 7.6,-15.4 ± 4.5,-20.3 ± 4.3
C(=C\c1ccccc1)/CN1CCN(CCOC(c2ccccc2)c2ccccc2)CC1,-119 ± 86,-158 ± 140,-15.3 ± 0.5,-48.3 ± 5
N=C(NCc1ccc(Cl)cc1)SCCCc1c[nH]cn1 [Clobenpropit dihydrobromide],-7.72 ± 1.3,-7.19 ± 5.3,-1.98 ± 3.3,-16.919 ± 0.0088
N[C@@H]1C[C@H]1c1ccccc1 [Tranylcypromine hydrochloride],-0.666 ± 4.5,-3.4 ± 6.8,-2.41 ± 0.21,-9.89 ± 4.2
C=CCN1CC[C@]23c4c5ccc(O)c4O[C@H]2C(=O)CC[C@@]3(O)[C@H]1C5 [Naloxone hydrochloride],-6.84 ± 3.1,0.449 ± 4,0.228 ± 0.85,-6.66 ± 4.5
Cc1ccc(C[N+](C)(C)C)o1 [5-Methylfurmethiodide],0.41 ± 4.8,-2.5 ± 1.6,1.22 ± 0.3,-12.4 ± 2.9
CC(C(=O)OC1CC2CCC(C1)N2C)c1ccc(Br)cc1 (configuration not stated) [PG-9 maleate],-35.3 ± 4.7,-25.4 ± 4.8,-40.3 ± 7.6,-38.6 ± 0.59
NC1(c2ccccc2Cl)CCCCC1=O (configuration not stated) [Norketamine hydrochloride],-46.1 ± 62,-0.431 ± 3.5,-1.51 ± 1.3,-8.94 ± 5.6
CC(C)(c1ccc(OCC2CO2)cc1)c1ccc(OCC2CO2)cc1 (configuration not stated),-45.5 ± 40,-39.5 ± 3.2,-32.6 ± 1.7,-25.8 ± 3.5
"CN(C(=O)Cc1ccc(Cl)c(Cl)c1)[C@H](CN1CCCC1)c1ccccc1 [ICI-199,441 hydrochloride]",-40.8 ± 3.1,-27.8 ± 6.5,-22.5 ± 9.4,-31.3 ± 2.5
"c1ccc(CC(c2ccccc2)N2CCCCC2)cc1 (racemic) [(±)-1-(1,2-Diphenylethyl)piperidine maleate]",-9.39 ± 5.2,-15.7 ± 28,-3.28 ± 4,-20.3 ± 17
O=C(CCCN1CCC2(CC1)C(=O)NCN2c1ccccc1)c1ccc(F)cc1 [Spiperone hydrochloride],-20.1 ± 0.5,-23.2 ± 11,-33.2 ± 8.1,-23.5 ± 4.3
Clc1ccc(C2=CCCC3CCC2N3)cn1 (configuration not stated) [UB 165 fumarate],-36 ± 47,0.00933 ± 0.9,-4.17 ± 1.1,-8.46 ± 3.7
Cc1cccc(C(C)c2c[nH]cn2)c1C (configuration not stated) [Medetomidine hydrochloride],-1.9 ± 1.4,-1.92 ± 5.6,-5.053 ± 0.014,-18.4 ± 16
CN(C)CCN(C)CCc1ccc(Cl)c(Cl)c1 [BD 1047 dihydrobromide],-29.79 ± 0.12,-29.4 ± 15,-42.8 ± 8,-28.8 ± 4.5
COc1ccc(CNC(=O)/C=C/c2ccc3[nH]cc(CCN(C)C)c3c2)cc1,-0.229 ± 1.8,-2.3 ± 0.084,-3.38 ± 1.5,-11.1 ± 3.6
CC(N)Cc1c[nH]c2ccc(O)cc12 (stereo not drawn) [α-Methyl-5-hydroxytryptamine maleate],-10.5 ± 9.7,-2.82 ± 6.1,0.802 ± 1.6,-10.2 ± 1.9
C/C(O)=C(\C#N)C(=O)Nc1cc(Br)ccc1Br,-37.4 ± 43,-8.08 ± 6.2,-12.6 ± 19,-8.49 ± 1.4
O=C(CCCN1CCC2(CC1)C(=O)N(Cc1cccc(F)c1)CN2c1ccccc1)c1ccc(F)cc1 [3'-Fluorobenzylspiperone maleate],-56.2 ± 18,-42.6 ± 7,-47.9 ± 3,-41.5 ± 1.2
"Clc1ccc(N2CCN(Cc3c[nH]c4ncccc34)CC2)cc1 [L-745,870 trihydrochloride]",-14.6 ± 0.55,-19 ± 12,-26.2 ± 7.9,-20.8 ± 3.1
"CC12NC(Cc3ccccc31)c1ccccc12 (single isomer, unassigned; (+)) [(+)-MK 801 maleate]",-2.04 ± 0.76,-5.38 ± 7.3,-3.26 ± 1.7,-7.96 ± 1.9

# Not a retest: entries from further up.
Compound,robust z score of cell number (mIMCD3 [1]; siRNA: siRpgrip1l),robust z score of cell number (mIMCD3 [1]; siRNA: siScr),robust z score of cilia incidence (mIMCD3 [2]),robust z score of cilia incidence (mIMCD3 [3])
N=C(NCc1ccc(Cl)cc1)SCCCc1c[nH]cn1 [Clobenpropit dihydrobromide],-7.72 ± 1.3,-7.19 ± 5.3,-1.98 ± 3.3,-16.919 ± 0.0088
N[C@@H]1C[C@H]1c1ccccc1 [Tranylcypromine hydrochloride],-0.666 ± 4.5,-3.4 ± 6.8,-2.41 ± 0.21,-9.89 ± 4.2

# From the supplement of paper PMC12009310
